The list shows only some results of the screen, not a fair sample: it gathers tests that were run many times, whatever their T/C, doses with no T/C, and many T/C values between a quarter and a half above the control. Further doses and runs are listed elsewhere. T/C: endpoint of the treated group in % of that of the vehicle group. Some entries give survivors of the animals treated and no T/C: the source files T/C as zero there, which appears to mark a toxic dose or a test without result, not a measured value. Some doses without a T/C left all or most animals alive at the check, yet need not have been tolerated: the source hardly ever lists a survival T/C far under the control, and the zero likely stands for such cases as well. Counts of survivors are from the toxicity check (mostly the fifth day) where no day follows; animals may have died later. Schedules are NCI's codes, read here as Q, the interval in days (D) or hours (H), X, the number of doses. For survival time, this PubChem deposit counts one and a half times the control or more as active, and values a quarter to a half above the control carry no call in these data; other NCI protocols may use other cut-offs. Some entries were tested several times; the results are listed from low to high. Counts like (3×) say how often a value occurs here.
Tested on: L1210 leukemia iv in BDF1 mice, survival T/C
Assay: NCI In Vivo Anticancer Drug Screen. Data for tumor model L1210 Leukemia (intravenous) in B6D2F1 (BDF1) mice
Conditions: T/C endpoint: mean survival time, higher T/C = longer survival
Procedure: The antitumor activity of compounds was measured in mice bearing transplantable tumors. Survival or tumor size were measured and the results are expressed as the measurement made in the treated group (T) divided by the measurement made in the vehicle treated control group (C). The tumor model used in this assay is L1210 Leukemia (intravenous) in B6D2F1 (BDF1) mice

[1] = dose: 50.0 mg/kg/injection, schedule: Q01DX001 (ip), vehicle: other

CC1CCC(NC(=O)N(CCCl)N=O)CC1 (stereo unspecified)
T/C (dose: 3.2 mg/kg/injection, schedule: Q01DX001 (ip), vehicle: other): 100, 109 (2×), 110, 112, 113, 115 (3×), 121, 125, 126, 130 % of control (2×) | T/C (dose: 5.4 mg/kg/injection, schedule: Q01DX001 (oral), vehicle: other): 131 % of control | T/C (dose: 6.0 mg/kg/injection, schedule: Q01DX001 (ip), vehicle: other): 116, 129, 130, 131 (2×), 141, 142, 146, 148, 150, 151 (3×), 160 % of control | T/C (dose: 10.0 mg/kg/injection, schedule: Q01DX001 (ip), vehicle: saline with Tween-80, evaluated on day 3): 134, 190, 193 % of control | T/C (dose: 10.0 mg/kg/injection, schedule: Q01DX001 (ip), vehicle: saline with Tween-80, evaluated on day 60): 134 and 193 % of control | T/C (dose: 13.0 mg/kg/injection, schedule: Q01DX001 (ip), vehicle: other): 151, 183, 186, 195, 197, 225 (2×), 237, 239, 248, 275, 285, 293, 347 % of control | T/C (dose: 16.0 mg/kg/injection, schedule: Q01DX001 (ip), vehicle: other): 200, 204, 273, 307, 321 % of control | T/C (dose: 20.0 mg/kg/injection, schedule: Q01DX001 (ip), vehicle: saline with Tween-80, evaluated on day 3): 183, 253, 290, 522 % of control | T/C (dose: 20.0 mg/kg/injection, schedule: Q01DX001 (ip), vehicle: saline with Tween-80, evaluated on day 60): 183, 253, 522 % of control | T/C (dose: 24.0 mg/kg/injection, schedule: Q01DX001 (ip), vehicle: other, evaluated on day 45): 374, 429, 441, 554, 648 % of control | T/C (dose: 24.0 mg/kg/injection, schedule: Q01DX001 (ip), vehicle: other, evaluated on day 60): 516, 632, 660, 694 % of control | T/C (dose: 24.0 mg/kg/injection, schedule: Q01DX001 (oral), vehicle: other, evaluated on day 45): 389 and 566 % of control | T/C (dose: 24.0 mg/kg/injection, schedule: Q01DX001 (oral), vehicle: other, evaluated on day 60): 362, 418, 543 % of control | T/C (dose: 27.0 mg/kg/injection, schedule: Q01DX001 (ip), vehicle: other): 377, 422, 440, 448, 530, 556, 560, 562, 571, 600, 608, 630, 633 (2×), 650, 661, 709 % of control | T/C (dose: 30.0 mg/kg/injection, schedule: Q01DX001 (ip), vehicle: saline with Tween-80, evaluated on day 3): 172, 288, 647, 653, 1020 % of control | T/C (dose: 30.0 mg/kg/injection, schedule: Q01DX001 (ip), vehicle: saline with Tween-80, evaluated on day 60): 288 and 653 % of control | survivor count (dose: 30.0 mg/kg/injection, schedule: Q01DX001 (ip), vehicle: saline with Tween-80): 10 of 10 | T/C (dose: 36.0 mg/kg/injection, schedule: Q01DX001 (ip), vehicle: other, evaluated on day 45): 615, 676, 697, 698, 745, 752, 817, 882 % of control | T/C (dose: 36.0 mg/kg/injection, schedule: Q01DX001 (ip), vehicle: other, evaluated on day 60): 121, 810, 906, 911 % of control | T/C (dose: 40.0 mg/kg/injection, schedule: Q01DX001 (ip), vehicle: other): 232, 590, 637, 676 % of control | T/C (dose: 40.0 mg/kg/injection, schedule: Q01DX001 (ip), vehicle: saline with Tween-80, evaluated on day 3): 144, 633, 845, 909, 1070 % of control | T/C (dose: 40.0 mg/kg/injection, schedule: Q01DX001 (ip), vehicle: saline with Tween-80, evaluated on day 60): 633 and 909 % of control | survivor count (dose: 40.0 mg/kg/injection, schedule: Q01DX001 (ip), vehicle: saline with Tween-80): 9 of 9 | T/C (dose: 45.0 mg/kg/injection, schedule: Q01DX001 (ip), vehicle: other): 580, 585, 803, 860 % of control | T/C [1]: 107, 117, 150, 154 % of control | T/C (dose: 50.0 mg/kg/injection, schedule: Q01DX001 (ip), vehicle: saline with Tween-80, evaluated on day 3): 109, 772, 848, 873, 1080 % of control | T/C (dose: 50.0 mg/kg/injection, schedule: Q01DX001 (ip), vehicle: saline with Tween-80, evaluated on day 60): 772 and 848 % of control | survivor count (dose: 50.0 mg/kg/injection, schedule: Q01DX001 (ip), vehicle: saline with Tween-80): 10 of 10 | T/C (dose: 54.0 mg/kg/injection, schedule: Q01DX001 (ip), vehicle: other, evaluated on day 45): 261, 275, 345, 487, 504, 552, 558, 566, 585, 625, 634, 642, 654, 720, 732, 746, 795, 829, 852 % of control | T/C (dose: 54.0 mg/kg/injection, schedule: Q01DX001 (ip), vehicle: other, evaluated on day 60): 93, 570, 712, 724 % of control | T/C (dose: 60.0 mg/kg/injection, schedule: Q01DX001 (ip), vehicle: other): 153, 171, 212, 264, 630 % of control | T/C (dose: 75.0 mg/kg/injection, schedule: Q01DX001 (ip), vehicle: other): 109, 115, 332, 364 % of control | T/C (dose: 100.0 mg/kg/injection, schedule: Q01DX001 (ip), vehicle: other): 117, 131, 183, 187 % of control | T/C (dose: 125.0 mg/kg/injection, schedule: Q01DX001 (ip), vehicle: other): 165, 168, 330, 588 % of control | T/C (dose: 150.0 mg/kg/injection, schedule: Q01DX001 (ip), vehicle: other): 236, 280, 464, 712 % of control | T/C (dose: 540.0 mg/kg/injection, schedule: Q01DX001 (ip), vehicle: saline with Tween-80): 130 % of control

Nc1ccn(C2OC(COC(=O)C34CC5CC(CC(C5)C3)C4)C(O)C2O)c(=O)n1 (stereo unspecified)
T/C [1]: 146 and 148 % of control

O=P1(N(CCCl)CCCl)NCCCO1 (stereo unspecified)
T/C (dose: 53.0 mg/kg/injection, schedule: Q04DX004 (ip), vehicle: saline, evaluated on day 3): 139 % of control | T/C (dose: 53.0 mg/kg/injection, schedule: Q04DX004 (ip), vehicle: saline, evaluated on day 60): 139 % of control | T/C (dose: 59.0 mg/kg/injection, schedule: Q01DX001 (ip), vehicle: saline): 128 and 147 % of control | T/C (dose: 60.0 mg/kg/injection, schedule: Q01DX001 (ip), vehicle: saline): 128 % of control | T/C (dose: 80.0 mg/kg/injection, schedule: Q01DX001 (ip), vehicle: saline): 144 % of control | T/C (dose: 100.0 mg/kg/injection, schedule: Q01DX001 (ip), vehicle: saline, evaluated on day 3): 202 % of control | T/C (dose: 100.0 mg/kg/injection, schedule: Q01DX001 (ip), vehicle: saline, evaluated on day 45): 159, 187, 209 % of control | T/C (dose: 125.0 mg/kg/injection, schedule: Q01DX001 (ip), vehicle: saline, evaluated on day 45): 166, 205, 236 % of control | T/C (dose: 125.0 mg/kg/injection, schedule: Q01DX001 (ip), vehicle: saline, evaluated on day 60): 212 % of control | T/C (dose: 150.0 mg/kg/injection, schedule: Q01DX001 (ip), vehicle: saline, evaluated on day 3): 226, 235, 247 % of control | T/C (dose: 150.0 mg/kg/injection, schedule: Q01DX001 (ip), vehicle: saline, evaluated on day 45): 217, 252, 256 % of control | T/C (dose: 200.0 mg/kg/injection, schedule: Q01DX001 (ip), vehicle: saline, evaluated on day 3): 142, 270, 282, 287 % of control | T/C (dose: 200.0 mg/kg/injection, schedule: Q01DX001 (ip), vehicle: saline, evaluated on day 45): 231, 251, 265, 384 % of control | T/C (dose: 250.0 mg/kg/injection, schedule: Q01DX001 (ip), vehicle: saline, evaluated on day 3): 104 and 340 % of control | T/C (dose: 250.0 mg/kg/injection, schedule: Q01DX001 (ip), vehicle: saline, evaluated on day 45): 316, 429, 474, 592 % of control | T/C (dose: 250.0 mg/kg/injection, schedule: Q01DX001 (ip), vehicle: saline, evaluated on day 60): 241 % of control | T/C (dose: 300.0 mg/kg/injection, schedule: Q01DX001 (ip), vehicle: saline, evaluated on day 3): 139, 338, 373, 385, 476, 483, 517 % of control | T/C (dose: 300.0 mg/kg/injection, schedule: Q01DX001 (ip), vehicle: saline, evaluated on day 45): 433, 513, 548 % of control | T/C (dose: 375.0 mg/kg/injection, schedule: Q01DX001 (ip), vehicle: saline, evaluated on day 3): 309, 388, 414 % of control | T/C (dose: 375.0 mg/kg/injection, schedule: Q01DX001 (ip), vehicle: saline, evaluated on day 45): 398, 439, 608 % of control | survivor count (dose: 468.0 mg/kg/injection, schedule: Q01DX001 (ip), vehicle: saline): 6 of 10

Nc1n[nH]c(N)n1
T/C (dose: 225.0 mg/kg/injection, schedule: Q03HX024 (ip), vehicle: saline): 133 % of control | T/C (dose: 6000.0 mg/kg/injection, schedule: Q01DX001 (ip), vehicle: saline): 125 % of control | survivor count (dose: 8000.0 mg/kg/injection, schedule: Q01DX001 (ip), vehicle: saline): 6 of 10

From PubChem BioAssay AID254 (DTP/NCI, 2004)
